Measurements published in the supplement of paper PMC10735217.
Counter-ions that a name gives are not always drawn. This is one part of the list. This data set is noisy: repeats of one test often differ as much as different tests do.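 In a drug-repurposing library screen, luminescence reads luciferase driven by eight TEAD-binding elements, stably integrated into human kidney-derived cells. Compounds scoring over five robust Z scores above the plate mean are called hits.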

System: HEK293A TEAD-LUC reporter
Experiment: TEAD-luciferase reporter activity (YAP activation), robust Z score vs plate; higher = stronger YAP/TEAD activation
Conditions: 24 h

| Structure (SMILES) | TEAD-luciferase reporter activity (compound concentration: 200 nM) | TEAD-luciferase reporter activity (compound concentration: 2 uM) | TEAD-luciferase reporter activity (compound concentration: 10 uM) |
| --- | --- | --- | --- |
| CCN1CCN(CCC(=O)Nc2ccccc2C)CC1 | inactive: -2.29 | inactive: 2.3 | inactive: -1.04 |
| CCCCCCCCC#CCC#CCC#CCCCC(=O)NCCOCCO | inactive: -1.29 | inactive: -0.576 | inactive: 0.646 |
| O=S(=O)(Nc1ccc(CCNC[C@@H](O)c2cccnc2)cc1)c1ccc(-c2nc(-c3ccc(C(F)(F)F)cc3)cs2)cc1 | inactive: 1.65 | inactive: -1.16 | inactive: -0.706 |
| Cc1cc(C)c(NC(=O)C(C)(C)C)c2c1CCN2CC1CC1 | inactive: -1.22 | inactive: 4.03 | inactive: 3.27 |
| NC1CCN(c2cccc(Br)n2)CC1 | inactive: -0.94 | inactive: 2.88 | inactive: 0.231 |
| CC(=O)NCCC(=O)N1Cc2ccccc2CC2(CCCN2CC2CCNCC2)C1 (stereo not drawn) | inactive: 1.12 | – | – |
| CC(c1cc2ccccc2s1)N(O)C(N)=O (stereo not drawn) [zileuton] | – | inactive: -2.2 | – |
| CC(c1cc2ccccc2s1)N(O)C(N)=O (stereo not drawn) | inactive: 3.64 | – | inactive: 1.35 |
| O=C(O)c1ccc(-n2nc(-c3ccccc3O)nc2-c2ccccc2O)cc1 [deferasirox] | inactive: -0.749 | inactive: -2.48 | inactive: 0.672 |
| OC(c1ccccc1)(c1ccccc1)C1CC1 | inactive: -0.716 | inactive: -1.68 | inactive: -0.868 |
| CC(C)=C/C(C)=N/N=c1\[nH]ncc2ccccc12 | inactive: -1.46 | inactive: -0.75 | inactive: 3.06 |
| NS(=O)(=O)c1cc2c(cc1Cl)NC(c1ccccc1)NC2=O (stereo not drawn) [fenquizone] | inactive: 0.517 | inactive: -1.15 | inactive: 0.25 |
| O=C1[C@@H]2[C@H]3C=C[C@H]([C@@H]4C=C[C@@H]43)[C@@H]2C(=O)N1CCCCN1CCN(c2ncccn2)CC1 | inactive: -1.36 | inactive: -1.52 | inactive: -1.92 |
| CC(=O)N[C@H](CCCNC(=N)N)C(=O)N[C@H](CCCNC(=N)N)C(=O)N[C@H](CCCNC(=N)N)C(=O)N[C@H](CCCNC(=N)N)C(=O)N[C@H](CCCNC(=N)N)C(=O)N[C@H](CCCNC(=N)N)C(=O)N[C@H](CCCNC(=N)N)C(=O)N[C@H](CCCNC(=N)N)C(=O)N[C@H](CCCNC(=N)N)C(N)=O [ALX 40-4C Trifluoroacetate] | inactive: -0.981 | – | inactive: 2.01 |
| C=CC(=O)N[C@H]1CCOC[C@H]1Nc1ncc2cc(-c3c(Cl)c(OC)cc(OC)c3Cl)ccc2n1 | inactive: -0.827 | inactive: -2.17 | inactive: -0.714 |
| O=C(O)c1ccc(OCCCOc2ccc(C(=O)O)cc2)cc1 [drug delivery system, MIT] | inactive: 0.632 | inactive: -1.02 | inactive: 0.406 |
| CO[C@H]1[C@H](O)[C@H](O)[C@H](OC2[C@H](C(=O)O)O[C@@H](C)[C@@H](O)[C@H]2O)O[C@@H]1C(=O)O (stereo partly drawn) [Alginic Acid] | inactive: -0.238 | inactive: -0.438 | inactive: -0.412 |
| Cc1c(OC(=O)c2ccc(N)cc2)c(O)c2ccccc2c1O [Aminaftone] | inactive: 0.171 | inactive: -0.773 | inactive: -0.579 |

Full records, quoted from the list. Values in the order: TEAD-luciferase reporter activity (compound concentration: 200 nM)	TEAD-luciferase reporter activity (compound concentration: 2 uM)	TEAD-luciferase reporter activity (compound concentration: 10 uM)
CCCCCCCCC#CCC#CCC#CCCCC(=O)NCCOCCO is listed with inactive: -1.29	inactive: -0.576	inactive: 0.646
NC1CCN(c2cccc(Br)n2)CC1 is listed with inactive: -0.94	inactive: 2.88	inactive: 0.231

Later entries:

| Structure (SMILES) | TEAD-luciferase reporter activity (compound concentration: 200 nM) | TEAD-luciferase reporter activity (compound concentration: 2 uM) | TEAD-luciferase reporter activity (compound concentration: 10 uM) |
| --- | --- | --- | --- |
| CN(C)C(=O)COC1c2ccccc2CCc2ccccc21 | inactive: 0.454 | inactive: -0.0786 | inactive: 2.88 |
| [O]=[Bi] [Bismuth(III) oxy iodide] | inactive: -0.215 | – | inactive: 0.224 |
| C[n+]1c2cc(N)ccc2cc2ccc(N)cc21.Nc1ccc2cc3ccc(N)cc3nc2c1 [Acriflavine] | inactive: 0.518 | active: 10.7 | inactive: 0.145 |
| NC(=O)NNc1ccccc1 | active: 5.65 | inactive: 0.966 | inactive: -0.534 |
| Cc1cccc(/C=N/Nc2cc(N3CCOCC3)n3nc(-c4ccncc4)cc3n2)c1 | inactive: 0.201 | inactive: -0.602 | inactive: 0.456 |
| CC(C)(O)CNc1nc(Nc2ccnc(C(F)(F)F)c2)nc(-c2cccc(C(F)(F)F)n2)n1 [Enasidenib] | inactive: -1.33 | inactive: -0.955 | inactive: -1.36 |
| Cc1cccc(C)c1NC(=O)C1CCCN(C)C1 (stereo not drawn) | inactive: 1.74 | inactive: 0.788 | inactive: -0.244 |
| O=C1NC2(CCN(CC3CCCC3)CC2)Oc2ccccc21 | inactive: -0.728 | – | inactive: 0.45 |
| COc1cccc2c1C(=O)c1c(O)c3c(c(O)c1C2=O)C[C@@](O)(C(=O)CO)C[C@@H]3OC1CC(N)C(OC2CCCCO2)C(C)O1 (stereo partly drawn) [pirarubicin] | inactive: -0.264 | inactive: -3.03 | inactive: 3.16 |
| Cc1cnc(C(=O)c2ncnc3[nH]ccc23)c(NS(=O)(=O)c2ccc(Cl)c(C(F)(F)F)c2)c1 | inactive: -1.5 | inactive: -1.43 | inactive: 0.481 |
| CC(C)(O)c1ccc2c(c1)C(=CCCN1CCC(O)(c3ccc(Cl)cc3)C(C)(C)C1)c1cccnc1CO2 (stereo not drawn) [analog of MLN-3897] | – | inactive: 0.184 | – |
| CC(C)(O)c1ccc2c(c1)C(=CCCN1CCC(O)(c3ccc(Cl)cc3)C(C)(C)C1)c1cccnc1CO2 (stereo not drawn) | inactive: -0.48 | – | inactive: -0.599 |
| CCN1c2ccc(C(c3ccccc3)(c3ccccc3)c3ccccc3)cc2C(C)=CC1(C)C | inactive: -0.00982 | inactive: -0.566 | inactive: 4.02 |
| O=C(O)c1cc(NC(=O)[C@H](Cc2ccccc2F)NC(=O)c2cc3[nH]cnc3cc2C(=O)NCC2CCCCCC2)cc(C(=O)O)c1 | inactive: -1.48 | inactive: 2.38 | inactive: -0.559 |
| CC(Oc1ccc2c(c1)Oc1ccccc1S2(=O)=O)C(F)(F)F (stereo not drawn) | inactive: 0.318 | inactive: 0.91 | inactive: 0.445 |
| CC(=O)NCC(=O)N1Cc2ccccc2CC2(CCCN2CC2CCNCC2)C1 (stereo not drawn) | inactive: 0.654 | – | inactive: 0.329 |
| O=C(O)C1CCc2cc(OCCn3ccnc3)ccc21 (stereo not drawn) [Camonagrel hydrochloride] | inactive: 0.432 | inactive: -0.575 | inactive: 0.776 |
